The assay concerns the target HDAC4 (human (endogenous in SK-UT-1)) (UniProt P56524). Nature of the assay: co-IP; SK-UT-1 cells treated 12 h with DMSO, SAHA 2.5 μM or NKL54 5 μM; hypotonic lysis buffer with 1% Triton X-100; immunoprecipitation with 1.5 μg anti-HDAC4 antibody, immunoblot with anti-MEF2D.

The chains behind the UniProt entries cited, without tags or fusion partners.
UniProt P56524: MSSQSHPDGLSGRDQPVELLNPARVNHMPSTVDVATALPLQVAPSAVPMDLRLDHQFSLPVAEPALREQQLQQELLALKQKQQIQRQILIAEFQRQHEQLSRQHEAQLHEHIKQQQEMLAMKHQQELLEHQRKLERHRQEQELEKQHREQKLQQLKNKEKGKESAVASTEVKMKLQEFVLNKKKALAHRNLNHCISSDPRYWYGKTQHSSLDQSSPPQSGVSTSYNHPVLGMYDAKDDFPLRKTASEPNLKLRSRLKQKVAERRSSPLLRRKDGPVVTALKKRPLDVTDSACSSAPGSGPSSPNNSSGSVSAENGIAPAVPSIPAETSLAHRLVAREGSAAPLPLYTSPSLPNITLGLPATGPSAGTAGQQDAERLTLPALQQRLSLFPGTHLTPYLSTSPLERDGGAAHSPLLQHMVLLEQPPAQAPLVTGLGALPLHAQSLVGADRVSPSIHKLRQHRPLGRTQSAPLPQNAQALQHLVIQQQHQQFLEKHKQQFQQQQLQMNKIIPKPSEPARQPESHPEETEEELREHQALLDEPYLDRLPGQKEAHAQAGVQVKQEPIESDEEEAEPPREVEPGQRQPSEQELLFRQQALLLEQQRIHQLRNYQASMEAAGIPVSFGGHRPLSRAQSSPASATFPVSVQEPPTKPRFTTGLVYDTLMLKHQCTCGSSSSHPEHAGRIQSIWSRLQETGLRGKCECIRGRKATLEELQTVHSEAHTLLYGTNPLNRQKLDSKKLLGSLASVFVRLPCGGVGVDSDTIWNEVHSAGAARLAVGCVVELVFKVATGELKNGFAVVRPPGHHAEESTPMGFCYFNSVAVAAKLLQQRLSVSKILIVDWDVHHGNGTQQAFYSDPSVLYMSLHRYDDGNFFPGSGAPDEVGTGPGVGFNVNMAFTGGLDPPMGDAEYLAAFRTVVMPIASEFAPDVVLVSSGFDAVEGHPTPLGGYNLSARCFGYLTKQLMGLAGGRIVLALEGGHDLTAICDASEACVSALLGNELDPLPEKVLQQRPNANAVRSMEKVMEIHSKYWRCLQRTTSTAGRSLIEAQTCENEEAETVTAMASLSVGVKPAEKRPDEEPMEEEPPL
UniProt Q14814: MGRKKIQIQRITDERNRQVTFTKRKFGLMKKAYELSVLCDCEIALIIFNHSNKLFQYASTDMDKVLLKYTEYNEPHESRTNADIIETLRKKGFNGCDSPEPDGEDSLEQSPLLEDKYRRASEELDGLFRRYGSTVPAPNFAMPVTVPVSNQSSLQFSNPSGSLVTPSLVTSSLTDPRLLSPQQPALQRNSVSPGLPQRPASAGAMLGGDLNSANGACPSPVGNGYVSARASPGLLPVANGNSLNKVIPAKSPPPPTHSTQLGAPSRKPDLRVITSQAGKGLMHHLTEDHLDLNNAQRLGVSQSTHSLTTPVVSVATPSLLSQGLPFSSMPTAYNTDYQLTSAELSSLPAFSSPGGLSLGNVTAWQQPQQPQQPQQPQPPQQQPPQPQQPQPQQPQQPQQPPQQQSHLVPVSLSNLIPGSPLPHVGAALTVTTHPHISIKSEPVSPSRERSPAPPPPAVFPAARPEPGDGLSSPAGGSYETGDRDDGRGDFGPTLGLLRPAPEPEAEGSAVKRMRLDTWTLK

These are yes or no findings as the source states them, for the method shown. Binding seen in cells or lysates may run through a third protein. Some entries that bind do so weakly or less than the wild type.

Regarding MEF2D (from UniProt Q14814 1-521), the binding result was “binds”.

These data come from PMC8934631, “Transcriptomic and genomic studies classify NKL54 as a histone deacetylase inhibitor with indirect influence on MEF2-dependent transcription” (Nucleic Acids Research, 2022).
